Assay results: publication PMC3250422
These are yes or no findings as the source states them, for the method shown. Binding seen in cells or lysates may run through a third protein. Some results given as binding are weak or reduced against the parent protein; the word gives no strength.

Sequences of proteins named here, by UniProt entry; tags and fusion partners are left off.
UniProt P47746: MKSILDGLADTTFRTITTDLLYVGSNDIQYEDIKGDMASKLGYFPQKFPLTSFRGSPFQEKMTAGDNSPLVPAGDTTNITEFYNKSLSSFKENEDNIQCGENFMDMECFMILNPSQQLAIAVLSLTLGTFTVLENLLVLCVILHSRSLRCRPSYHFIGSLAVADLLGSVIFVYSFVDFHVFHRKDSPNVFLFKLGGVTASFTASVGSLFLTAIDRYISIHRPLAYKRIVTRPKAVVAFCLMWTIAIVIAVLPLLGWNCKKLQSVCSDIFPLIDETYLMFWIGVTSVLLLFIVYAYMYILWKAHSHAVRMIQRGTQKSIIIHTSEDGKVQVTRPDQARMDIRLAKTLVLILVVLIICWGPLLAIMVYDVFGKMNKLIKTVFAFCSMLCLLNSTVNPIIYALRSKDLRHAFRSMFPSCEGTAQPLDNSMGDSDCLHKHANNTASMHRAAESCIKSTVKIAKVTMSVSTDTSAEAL
UniProt Q91YI4: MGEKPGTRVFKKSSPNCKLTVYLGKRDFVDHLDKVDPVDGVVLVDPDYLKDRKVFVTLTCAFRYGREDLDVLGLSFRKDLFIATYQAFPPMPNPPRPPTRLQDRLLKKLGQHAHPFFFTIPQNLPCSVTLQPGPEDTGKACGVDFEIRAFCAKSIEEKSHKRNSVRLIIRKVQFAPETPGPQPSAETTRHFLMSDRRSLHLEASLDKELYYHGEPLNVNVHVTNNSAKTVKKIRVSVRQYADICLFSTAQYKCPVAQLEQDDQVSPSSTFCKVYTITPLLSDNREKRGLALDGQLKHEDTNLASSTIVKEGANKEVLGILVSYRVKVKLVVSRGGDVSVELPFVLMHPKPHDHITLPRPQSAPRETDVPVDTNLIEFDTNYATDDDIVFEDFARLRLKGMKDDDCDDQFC

Tests used:
Assay in all cases: co-IP; lysates (100–200 µg protein; 1% Triton, 150 mM NaCl, 1 mM EDTA, 1 mM EGTA, 50 mM Tris-Cl pH 7.4) of N2A^CB1R, N2A^CB1RDOR or N2A^CB1RDORΔ15 cells; 1 µg anti-CB1R (C-terminal) antibody on agarose beads, anti-myc or anti-FLAG overnight at 4°C; immunoblot; for arrestin3, cells starved 4 h and without or with 100 nM Hu210 for 5 min
[1] = biological target: myc-tagged delta opioid receptor (mouse) (UniProt P32300)
[2] = biological target: Flag-tagged DORΔ15 (mouse) (UniProt P32300)
[3] = biological target: Type 1 cannabinoid receptor (mouse (endogenous in Neuro2A)) (UniProt P47746)

binding [1] | binding [2] | binding [3] | Substance
binds | binds | – | Type 1 cannabinoid receptor (from UniProt P47746 1-473)
– | – | binds | myc-tagged delta opioid receptor (from UniProt P32300 1-372)
– | – | binds | arrestin3 (from UniProt Q91YI4 1-410)
